Results reported in publication PMC7204297.
Results are given in words; binding and its absence hold for the method and conditions named. In cells and extracts the contact can be indirect. Some entries that bind do so weakly or less than the wild type. For part of these data: Sequences can lack the tags named with a protein. Each block holds one substance with its values, some of them ahead of it.

What was measured:
GFP-SH3BGRL (human) = biological target: T1, GFP-SH3BGRL (human) (UniProt O75368); assay: co-IP; HEK293T co-transfected with GFP-SH3BGRL and YFP-HER2 for 48 h; lysis buffer 20 mM Tris pH 7.4, 150 mM NaCl, 1% NP-40, 20 mM EDTA; IP with SH3BGRL-specific antibody or control IgG overnight at 4 °C, protein A or G magnetic beads; western blot
T1 sequence: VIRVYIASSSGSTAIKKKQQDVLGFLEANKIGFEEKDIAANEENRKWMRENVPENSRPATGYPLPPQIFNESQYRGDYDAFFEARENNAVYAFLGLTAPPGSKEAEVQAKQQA

[1] = biological target: endogenous SH3BGRL (human (endogenous in MDA-MB-453)) (UniProt O75368); assay: co-IP; endogenous proteins in MDA-MB-453 lysate; reciprocal IP with anti-SH3BGRL or anti-HER2 antibody, normal IgG as control; overnight at 4 °C, protein A or G magnetic beads; western blot
[2] = biological target: endogenous HER2 (human (endogenous in MDA-MB-453)) (UniProt P04626); assay: as above

binding (GFP-SH3BGRL (human)): binds
Substance: YFP-HER2 (from UniProt P04626 23-1255) (receptor)

binding [1]: binds
Substance: endogenous HER2 (from UniProt P04626 23-1255) (receptor)

binding [2]: binds
Substance: endogenous SH3BGRL (from UniProt O75368 1-114)
